Measured values: publication PMC10229228, “Structural insights into a regulatory mechanism of FIR RRM1–FUSE interaction”
Changes are numbered by the printed parent chain. Construct, isoform or probe ends are uncertain for at least one entry. At least one verdict rests on a figure or table, not on a statement of the authors. Where a protein sequence is shown, tags need not be part of it.

Legend:
FIR RRM1-2 Y115F = test system: T1, FIR RRM1-2 Y115F; experiment: ITC; details: ITC: 25 mM HEPES pH 7.5, 150 mM NaCl, 0.5 mM TCEP, 20 C, protein 160-240 uM titrated into ssDNA 40-50 uM, recombinant protein, residues 101-293, protein details: N-terminal His6, removed by TEV, single-stranded DNA
T1 sequence (looked up): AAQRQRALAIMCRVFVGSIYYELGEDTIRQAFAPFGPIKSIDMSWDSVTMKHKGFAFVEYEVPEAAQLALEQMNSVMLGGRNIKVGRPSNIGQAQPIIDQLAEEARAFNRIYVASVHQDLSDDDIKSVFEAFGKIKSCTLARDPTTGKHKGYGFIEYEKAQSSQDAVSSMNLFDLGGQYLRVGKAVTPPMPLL

FIR RRM1-2 WT = test system: T2, FIR RRM1-2 WT; experiment: ITC; details: range given for the four non-preferred fragments; ITC: 25 mM HEPES pH 7.5, 150 mM NaCl, 0.5 mM TCEP, 20 C; protein 160-240 uM titrated into ssDNA 40-50 uM; recombinant protein; residues 101-293; protein details: N-terminal His6, removed by TEV; single-stranded DNA
T2 sequence (looked up): T1 sequence (looked up) with F15Y

[1] = range given for the four non-preferred fragments

Row | Sequence | binding result (FIR RRM1-2 Y115F; range, virtually same as TTGTTTT) | binding result (FIR RRM1-2 Y115F; range, virtually same as TTATTTT) | binding result (FIR RRM1-2 WT) | binding result (FIR RRM1-2 Y115F; [1])
1 | TTATTTT | binds | – | – | –
2 | TTGTTTT | – | binds | – | –
3 | TCATTTT | – | – | binds | binds
4 | TGATTTT | – | – | binds | binds
5 | TAATTTT | – | – | binds | –
